Consider 14 molecules from patent publication US11884627B2, “Compounds and compositions for treating conditions associated with LPA receptor activity” (Lhotse Bio, Inc., priority 2022, dated 2024).

Sequences of proteins named here, by UniProt entry; tags and fusion partners are left off.
UniProt Q92633, whole entry: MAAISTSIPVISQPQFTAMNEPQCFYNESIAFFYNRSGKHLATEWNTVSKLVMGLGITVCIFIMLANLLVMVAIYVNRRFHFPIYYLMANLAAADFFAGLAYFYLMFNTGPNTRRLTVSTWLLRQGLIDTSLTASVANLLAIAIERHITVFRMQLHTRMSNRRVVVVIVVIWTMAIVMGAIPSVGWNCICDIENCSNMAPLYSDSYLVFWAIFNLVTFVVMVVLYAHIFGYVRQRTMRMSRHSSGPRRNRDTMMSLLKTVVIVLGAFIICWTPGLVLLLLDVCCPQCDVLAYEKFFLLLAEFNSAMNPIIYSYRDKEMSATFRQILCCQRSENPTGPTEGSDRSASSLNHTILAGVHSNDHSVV

Structures were worked out from names or drawings and are uncertain.

Assay [1] addresses T1, human LPA1 (Homo sapiens, UniProt Q92633). Nature of the assay: In vitro LPA1 calcium flux antagonist assay - Bioduro protocol. To be noted: CHO-K1 cells overexpressing human LPA1 and G15a, LPA challenge at EC80. Here is the method:
In Vitro LPA1 Calcium Flux Antagonist Assay—Bioduro Protocol
CHO-K1 cells overexpressing human LPA1 and G15a were seeded at a total volume of 20 μL (15000 cells/well) into Matrigel pre-coated 384-well plates (corning −3764) and incubated at 37° C. After overnight incubation, the cells were serum starved for 4 h. Assays were performed in dye loading buffer containing 1× Fluo-8 AM (AAT Bioquest, 21080) and 2.5 mM probenecid (Thermo Fisher, 36400) in HBSS/20 mM Hepes. After cell starvation, the medium was replaced with 20 μL of dye loading buffer and incubated at 37° C., for 30 min. Then 5 μL of 5× compound titrated in dye loading buffer was added to the cells and incubated for 30 min followed by LPA challenge at EC80. Calcium mobilization was measured on a FLIPR Tetra (MSD). For LPA EC80 determination, starved cells were incubated with 20 μL of dye loading buffer for 1 h, then 5 μL of 5×LPA titrated in dye loading buffer was added to the cells. Calcium signals induced by LPA was monitors on a FLIPR.
Percentage inhibition is calculated using the following formula: % Inhibition=100%×(1−(mean RFU of test sample−mean RFU of DMSO)/(mean RFU of LPA control−mean RFU of DMSO)).
Table B3 and Table B4 show the biological activity of compounds in in vitro LPA1 Calcium flux antagonist assay—Bioduro protocol.
(In general: Calcium assays in cells follow changes in intracellular calcium, usually with a dye or a luminescent sensor.)

The target in assay [2] is T1, human LPA1. The experiment in a line: In vitro LPA1 functional antagonist assay (calcium mobilization, FLIPR). To be noted: Table B2; CHO-K1 cells overexpressing human LPA1, Oleoyl LPA challenge at EC80. How it is done: In Vitro LPA1 Functional Antagonist Assay
CHO-K1 cells overexpressing human LPA1 were seeded in a total volume of 20 μL into black-walled, clear-bottom. Poly-D-lysine coated 384-well microplates and incubated at 37° C., for the appropriate time prior to testing. Assays were performed in 1× Dye Loading Buffer consisting of 1× Dye, 1× Additive A and 2.5 mM Probenecid in HBSS/20 mM Hepes. Probenicid was prepared fresh. Cells were loaded with dye prior to testing. Media was aspirated from cells and replaced with 20 μL Dye Loading Buffer. Cells were incubated for 30-60 minutes at 37° C. After dye loading, cells were removed from the incubator and 10 μL 3× test compound was added. […] Compound antagonist activity was measured on a FLIPR Tetra (MSD). Calcium mobilization was monitored for 2 minutes and 10 μL Oleoyl LPA in HBSS/20 mM Hepes was added to the cells 5 seconds into the assay. […] LPA agonist activity was measured on a FLIPR Tetra (MSD). Calcium mobilization was monitored for 2 minutes and 10 μL 4×LPA sample in HBSS/20 mM Hepes was added to the cells 5 seconds into the assay. Compound activity was analyzed using CBIS data analysis suite (ChemInnovation, CA). Percentage inhibition is calculated using the following formula: % Inhibition=100%×(1−(mean RFU of test sample−mean RFU of vehicle control)/(mean RFU of LPA control−mean RFU of vehicle control)). […]

Where [3] appears, read: calcium mobilization on FLIPR Tetra.
Where [4] appears, read: read-out: Activity (IC50 class), Table B3.

By IC50 is commonly meant the concentration that gives 50% inhibition. As to `CCCCOCc1cc(NC2(C(=O)O)CCC2)ccc1-c1cc(OC)cc(OCC)c1F`, the results for the IC50 at human LPA1 [1] (setting [3]) and at human LPA1 [1] (setting [4]) were 0.0174 µM and under 0.1 µM, respectively.

Take `COc1cc(C)cc(-c2c(C)cc(NC3(C(=O)O)CCOCC3)cc2COC2CCCC2)c1`: the IC50 at human LPA1 [1] (setting [3]) is 0.666 µM; on human LPA1 [1] (setting [4]), 0.1 to 1 µM.

`COc1cc(-c2ccc(CC3(C(=O)O)CCOCC3)cc2COC2CCCC2)c(Cl)c(OC)n1`: the IC50 at human LPA1 [1] (setting [3]) is 2.39 µM; at human LPA1 [1] (setting [4]), over 1 µM.

Take `O=C(O)C1(Nc2ccc(-c3cncc(OC4CC4)c3C(F)F)c(COC3CC3)c2)CCOCC1`: the figures for the half-inhibitory concentration (IC50) on human LPA1 [1] (setting [3]) and at human LPA1 [1] (setting [4]) were 0.065 µM and under 0.1 µM, respectively.

With `CCOc1cc(OC)cc(-c2ccc(OC3(C(=O)O)CCOCC3)cc2COC2CC2)c1F`, the IC50 on human LPA1 [1] (setting [3]) is 0.144 µM; on human LPA1 [1] (setting [4]) it was 0.1 to 1 µM.

Regarding `COc1cc(-c2ccc(OC3(C(=O)O)CCOCC3)cc2CCC2CCOC2)c(Cl)c(OC)n1` (single isomer, unassigned) [269], the IC50 was 0.259 µM on human LPA1 [1] (setting [3]) and 0.1 to 1 µM at human LPA1 [1] (setting [4]).

`COc1cc(-c2ccc(NC3(C(=O)O)CCOCC3)cc2COC2CCCC2)c(C)c(OC)n1`: the half-maximal inhibitory concentration (IC50) on human LPA1 [2] is 0.00888 µM; on human LPA1 [1] (setting [3]), 0.0257 µM; on human LPA1 [1] (setting [4]) it was under 0.1 µM.

Take `COc1c(C#N)ccc(-c2ccc(NC3(C(=O)O)CCOCC3)cc2COC2CCCC2)c1C`: the results for the IC50 at human LPA1 [1] (setting [3]) and at human LPA1 [1] (setting [4]) were 0.027 µM and under 0.1 µM, respectively.

With `COc1cc(-c2ccc(OC3(C(=O)O)CCOCC3)cc2CCC2CCOC2)c(F)c(OC)c1C` (single isomer, unassigned), the IC50 on human LPA1 [1] (setting [3]) was 0.0813 µM; at human LPA1 [1] (setting [4]), under 0.1 µM.

Take `COc1cc(-c2ccc(NCCC(=O)O)cc2CCC2(C)Oc3ccccc3O2)cc(OC)c1C`: the IC50 at human LPA1 [1] (setting [3]) is 0.248 µM; on human LPA1 [1] (setting [4]), 0.1 to 1 µM.

Take `CCOc1cccc(-c2ccc(NC3(C(=O)O)CCOCC3)cc2CCC2CC2)c1C`: the IC50 at human LPA1 [1] (setting [3]) was 0.00195 µM; at human LPA1 [1] (setting [4]), under 0.1 µM.

As for `COc1cc(-c2ccc(NC3(C(=O)O)CCCCC3)cc2COC2CC2)c(F)c(OC)c1C`, the IC50 on human LPA1 [1] (setting [3]) is 0.0474 µM; at human LPA1 [1] (setting [4]), under 0.1 µM.

On to `COc1cc(-c2ccc(NC3(C(=O)O)CCOCC3)cc2COC2CCCC2)c(F)c(OC)n1`, for which the IC50 on human LPA1 [1] (setting [3]) was 0.0502 µM; on human LPA1 [1] (setting [4]), under 0.1 µM.

For `COc1cc(-c2ccc(OC3(C(=O)O)CCOCC3)cc2CCC2CCOC2)c(Cl)c(OC)n1` (single isomer, unassigned) [268], the figures for the IC50 on human LPA1 [1] (setting [3]) and at human LPA1 [1] (setting [4]) were 0.648 µM and 0.1 to 1 µM, respectively.
